Consider 54 sequences from publication PMC7819943, “Rice protein-binding microarrays: a tool to detect cis-acting elements near promoter regions in rice”.

The other results are listed elsewhere or left out.

This assay has as its target T1, OsSMF1 (Oryza sativa, UniProt Q6ZLB0 1-436).
T1 sequence: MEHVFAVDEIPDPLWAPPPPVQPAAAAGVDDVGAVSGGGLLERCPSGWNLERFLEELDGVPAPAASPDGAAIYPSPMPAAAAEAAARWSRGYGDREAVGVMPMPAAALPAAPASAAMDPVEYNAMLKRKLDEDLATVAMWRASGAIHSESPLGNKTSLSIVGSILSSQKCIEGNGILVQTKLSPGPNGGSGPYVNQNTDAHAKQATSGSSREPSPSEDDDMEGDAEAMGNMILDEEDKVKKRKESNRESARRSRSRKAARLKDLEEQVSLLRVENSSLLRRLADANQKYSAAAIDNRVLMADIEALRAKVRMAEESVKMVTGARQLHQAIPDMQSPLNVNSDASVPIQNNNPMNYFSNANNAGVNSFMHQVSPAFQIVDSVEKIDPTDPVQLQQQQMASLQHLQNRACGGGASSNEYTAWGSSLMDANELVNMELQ
In words: protein-binding microarray (RPBM); PBS, 2% BSA, 51.3 ng/ul salmon testes DNA, 50 uM zinc acetate, 200 nM TF, 25 C, 1 h; high values mean tight binding. To be noted: protein: recombinant; tags: N-terminal polyhistidine and DsRed monomer fusion (pET32a); chain copies: 2; label: CyDye5-dUTP incorporated in the synthesized complementary strand; 3' TTTTT single-stranded linker to array surface; dsDNA, one strand shown. The procedure, abridged:
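The binding signal is fluorescence intensity per array feature (arbitrary units). Readings came from an Axon 4000B scanner after a washed, 2% BSA-blocked, double-stranded custom Agilent array had been incubated for 1 h at 25 °C with 200 nM protein and 50 µM zinc acetate. The protein was a Ni–NTA-purified transcription factor fused N-terminally to polyhistidine and DsRed, expressed in E. coli BL21-CodonPlus.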
Take “GGAAGAAGGCCGCCGACGCACAACAGAGGCGGCGGCGGGGCGGAGTCACCTAGTGCAG”: the binding signal is 3510 fluorescence intensity (a.u.).

“TTGTGAGCTCGGGATCTGTCCGCAGCCCAACATGACTGTACGGAGTCACCTAGTGCAG”: the binding signal is 3820 fluorescence intensity (a.u.).

On to “ATCGCCACACCGACCGGATACGTGGAATGAAACCCAAACCCGGAGTCACCTAGTGCAG”, for which the binding signal was 3530 fluorescence intensity (a.u.).

For “TTGTGAAGTGATATATTACATATTAACCTATCATGTCAATCGGAGTCACCTAGTGCAG”, the binding signal is 38100 fluorescence intensity (a.u.).

For the sequence “ACAAGGTTACAGACGTGTCACGTGCGCGCGCGCATCTCTCCGGAGTCACCTAGTGCAG”, the binding signal is 6070 fluorescence intensity (a.u.).

Turning to “CAACAATTTCCTCTCCTGTCAATGAACTTGTGTGCACGACCGGAGTCACCTAGTGCAG”, the binding signal is 21900 fluorescence intensity (a.u.).

With “CTGGACCCATATTTCATAGACACAGATGGGCCCATTTATCCGGAGTCACCTAGTGCAG”, the binding signal was 8190 fluorescence intensity (a.u.).

Regarding “TGTTGCACGGACATTTTGTCTATGACGCGGTAAGAGGGAGCGGAGTCACCTAGTGCAG”, the binding signal was 3260 fluorescence intensity (a.u.).

With “CCAGAATCCAAATGGGCCGTCTCTCTTCGTCTGGGCCCATCGGAGTCACCTAGTGCAG”, the binding signal was 4820 fluorescence intensity (a.u.).

As to “TCCTGTCCTTCTTTCTCTTCAAGTCCTTCCTCTTCACTCCCGGAGTCACCTAGTGCAG”, the binding signal was 65500 fluorescence intensity (a.u.).

On to “GATTCACTAAGACTGAAATAAAGCATTGGGTCGAACTCTTCGGAGTCACCTAGTGCAG”, for which the binding signal was 3900 fluorescence intensity (a.u.).

Take “GTCATACACATACAACTTTTCAGTCACATCATCTCCAATTCGGAGTCACCTAGTGCAG”: the binding signal is 3150 fluorescence intensity (a.u.).

As for “TACACTGGTGGATGTGAATCATTGGAATGCATGCCTCCTGCGGAGTCACCTAGTGCAG”, the binding signal was 3810 fluorescence intensity (a.u.).

On to “TGGCTTGAAAGTCACACCGTGAGTCAGACGATCCGCGTCCCGGAGTCACCTAGTGCAG”, for which the binding signal was 8380 fluorescence intensity (a.u.).

Take “TATGCATGACATCACAACGAAAGCTGGGACCTCGTCGATCCGGAGTCACCTAGTGCAG”: the binding signal is 3600 fluorescence intensity (a.u.).

In the case of “TCGCTCTCTCCACATCGGTCGTGCGGTCGTGCCGCCATCACGGAGTCACCTAGTGCAG”, the binding signal is 3460 fluorescence intensity (a.u.).

With “TCTCCCTGTTGCAGCACCTACGTGTAGTTTAGCTGCATCTCGGAGTCACCTAGTGCAG”, the binding signal was 4420 fluorescence intensity (a.u.).

Turning to “TTTTGTCATTGCCGACTGATGCTTAATCACATTGTTGCGCCGGAGTCACCTAGTGCAG”, the binding signal is 3340 fluorescence intensity (a.u.).

With “CTGTCGTCACCATGACACGTCATCAGTCGTTAGGGTCGGCCGGAGTCACCTAGTGCAG”, the binding signal is 25600 fluorescence intensity (a.u.).

For “TAAGATAAAGAAAGGAGGTCAGTGAGTCAGCAGAGTACCGCGGAGTCACCTAGTGCAG”, the binding signal was 16400 fluorescence intensity (a.u.).

In the case of “TGAACTAAGCCACATTTGTCACTTGTCAGCAGAGAGCCAGCGGAGTCACCTAGTGCAG”, the binding signal was 3330 fluorescence intensity (a.u.).

Regarding “AGGGACGTGGTCGTACGTGTCCGACGTCCCTGACGATTCACGGAGTCACCTAGTGCAG”, the binding signal was 7050 fluorescence intensity (a.u.).

In the case of “ACTACGTGCACTCGCGACATGATGTGTATGATGCTTAAAACGGAGTCACCTAGTGCAG”, the binding signal was 20200 fluorescence intensity (a.u.).

In the case of “GAGATTGGAAATGATCGAATTGTTCCGGCAGCGTGGCAGCCGGAGTCACCTAGTGCAG”, the binding signal is 3360 fluorescence intensity (a.u.).

In the case of “ATTGAACCCGGGAATGCTGGATCCTCTGTAATCAGACTTGCGGAGTCACCTAGTGCAG”, the binding signal was 3370 fluorescence intensity (a.u.).

Turning to “GGAGGCAGCCACTTATCCCTCTCCTTTCCCTCCCAGATCCCGGAGTCACCTAGTGCAG”, the binding signal was 15500 fluorescence intensity (a.u.).

As for “ACCTTCAAATGCAATTTTACAATGGATTTACCTCAAGCTACGGAGTCACCTAGTGCAG”, the binding signal was 19200 fluorescence intensity (a.u.).

Consider “CGCGGGGTGACGGCGATGGATGACGGCGCGCGGGCGGGGCCGGAGTCACCTAGTGCAG”, for which the binding signal was 3960 fluorescence intensity (a.u.).

With “CTGCCACGTCTTAACTCGAGTATCTTCCCCTTCCCTTAGGCGGAGTCACCTAGTGCAG”, the binding signal is 26700 fluorescence intensity (a.u.).

Consider “TTTAGCATTTGCTGTGTCACCTCTCCATAAAATTTGGTTGCGGAGTCACCTAGTGCAG”, for which the binding signal was 8830 fluorescence intensity (a.u.).

Consider “CCGGCGGTACGGCCCCGTCATGCTCCTCCGCCTCGGCCATCGGAGTCACCTAGTGCAG”, for which the binding signal was 3370 fluorescence intensity (a.u.).

In the case of “CGGGAAGTGGACAGCGTGTTGCCTGCGTGGGCGGTGTTGTCGGAGTCACCTAGTGCAG”, the binding signal was 4610 fluorescence intensity (a.u.).

“GAGTAAAATATTCTGCAGTCGGCACTTTTGTTGTGTCATGCGGAGTCACCTAGTGCAG”: the binding signal is 3360 fluorescence intensity (a.u.).

With “TCTGGGTATCCTCTGTTATGTCATCTTCACCTCCATTTGGCGGAGTCACCTAGTGCAG”, the binding signal is 3720 fluorescence intensity (a.u.).

As to “TTATAGATGGTGGTTTTGTTGATGTGGCAGTGTTGATTAGCGGAGTCACCTAGTGCAG”, the binding signal was 11200 fluorescence intensity (a.u.).

For “ACGTGGATAATTAATACTACTACGTGTCTGCATATGCGTACGGAGTCACCTAGTGCAG”, the binding signal is 3420 fluorescence intensity (a.u.).

As to “CTGAAAAGGAATCGGCCTACGTCTGACGCATGCATTCTGGCGGAGTCACCTAGTGCAG”, the binding signal was 7560 fluorescence intensity (a.u.).

Regarding “GGGTGGACCACGTGTCGTTGCGTCTTAGTTACCCTTCTACCGGAGTCACCTAGTGCAG”, the binding signal is 7980 fluorescence intensity (a.u.).

Regarding “GCTGCCGCCGTCGCTGTCCCTGCCACCTCAAGGACTCGCCCGGAGTCACCTAGTGCAG”, the binding signal was 4830 fluorescence intensity (a.u.).

In the case of “CCATATGCTGCTCGCATCCACGTATAAGTACACCTCTCCCCGGAGTCACCTAGTGCAG”, the binding signal is 5290 fluorescence intensity (a.u.).

On to “TGCAACCATGGTCGTCAGCAATGGATATGGCATAATGCTGCGGAGTCACCTAGTGCAG”, for which the binding signal is 5250 fluorescence intensity (a.u.).

As to “ATTTATACAACAACCAGTGACTCATCAATTATCGCGGTGGCGGAGTCACCTAGTGCAG”, the binding signal was 16900 fluorescence intensity (a.u.).

For “ACTCCTAAATTTAGCTCCAGGAGTTAGTCTGGAGTAGAGTCGGAGTCACCTAGTGCAG”, the binding signal is 3280 fluorescence intensity (a.u.).

Take “CACCAAACGACATTCGTGCGGCGCAGGTGGAGTGGACGGACGGAGTCACCTAGTGCAG”: the binding signal was 3140 fluorescence intensity (a.u.).

As to “CCAGCGAGACGTTCGATCGTTCGGTTGTCTACGTGGCAATCGGAGTCACCTAGTGCAG”, the binding signal was 13700 fluorescence intensity (a.u.).

For “CTGGAGCGGGCGGCCACGGTCACGCCACGTCAGCTTCCATCGGAGTCACCTAGTGCAG”, the binding signal is 42100 fluorescence intensity (a.u.).

With “CCACAACCTCTCTCACCACCCTGTCATCTGCACCACTGTCCGGAGTCACCTAGTGCAG”, the binding signal was 4300 fluorescence intensity (a.u.).

In the case of “TACTTTATTTTGATTTTCGTGGGAGGTGACGTGGGCGCTTCGGAGTCACCTAGTGCAG”, the binding signal was 19300 fluorescence intensity (a.u.).

Turning to “TCCACATGTCTATCTTACATATTTTCTTGGTTCCTGTGCTCGGAGTCACCTAGTGCAG”, the binding signal was 3440 fluorescence intensity (a.u.).

As for “TTGGCTGATGTGACGCCTACGTGGCTGGTTTGACTTGGTCCGGAGTCACCTAGTGCAG”, the binding signal was 23300 fluorescence intensity (a.u.).

For “TTGTTCTGTCGATCCATCGGTATCCTGGTCAATTGGCAAGCGGAGTCACCTAGTGCAG”, the binding signal was 3160 fluorescence intensity (a.u.).

Consider “GCCAAACAATGACCCTGATTTCGTGTCGTGGTTTTATATCCGGAGTCACCTAGTGCAG”, for which the binding signal is 3850 fluorescence intensity (a.u.).

Consider “TACTGGAACAACAGATAGCATGATGACTACACAGTACACACGGAGTCACCTAGTGCAG”, for which the binding signal is 3160 fluorescence intensity (a.u.).

As for “CATCACAACACCTAAAAGACATGCCGTGATGCTAGAACAGCGGAGTCACCTAGTGCAG”, the binding signal is 33100 fluorescence intensity (a.u.).
